Experimental data taken from paper PMC6220267.
No constants are given. Whether binding was seen depends on the method and setting. Binding seen in cells or lysates may run through a third protein. Some results given as binding are weak or reduced against the parent protein; the word gives no strength. Tags and fused reporters may be left off the sequences shown.

Protein sequences, listed by entry. Tags and fused reporters are not part of them. Residues count along the entry.
UniProt P05067, residues 672-713: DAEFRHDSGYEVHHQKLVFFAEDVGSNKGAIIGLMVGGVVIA

Target: Aβ42 fibrils (fibrillar Aβ42) (UniProt P05067)
Assay: pull-down; Aβ42 fibril pull-down: conditioned media with 5 mM EDTA incubated with Aβ42 fibrils 1 h at room temperature, fibrils pelleted at 18,000 g, washed with PBS; Western blot with V5 antibody; only the target purified

B1: soluble TREML1‐Fc (human, soluble ectodomain) (Fc fusion, UniProt Q86YW5 16-162)
chain: QGIVGSLPEVLQAPVGSSILVQCHYRLQDVKAQKVWCRFLPEGCQPLVSSAVDRRAPAGRRTFLTDLGGGLLQVEMVTLQEEDAGEYGCMVDGARGPQILHRVSLNILPPEEEEETHKIGSLAENAFSDPAGSANPLEPSQDEKSIP
binding: binds
